Results published in PubChem BioAssay AID602313 (National Center for Advancing Translational Sciences (NCATS), 2012).
Values joined by “and” are separate entries in the source; they are usually repeats but may differ in a detail not shown here. Identical values can stand only once. The campaign covered roughly 390,000 compounds. About 760 (0.19%) were called active. Inconclusive results, whose numbers are uncertain, are shown with a selection of clear calls. Calls follow the shape of the dose curve; as a rule, active = well fitted inhibition curve with a large enough effect; inconclusive = small, poorly fitted or top-dose-only effect; inactive = flat fitted curve, though single readings scatter. A potency beside an inconclusive call is a rough fit, not a confirmed value.
Potency is read from the fitted curve at half-maximal effect.

Test: qHTS for Inhibitors of Vif-A3F Interactions: qHTS; also: nearly all actives have a fitted effect of over 65% in size
Conditions: HeLa A3F-eYFP + Vif (tagged APOBEC3F with the HIV-1 protein that degrades it), YFP fluorescence increase; series mostly up to 46.1 µM
How it was run: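 Fluorescence increase (Ex 488/Em 500-530) after overnight compound treatment at 37 deg C flags inhibition of Vif-driven A3F-eYFP loss in stable HeLa A3F-eYFP/Vif cells seeded overnight beforehand.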
For `Cc1cccc(-n2c(O)c(C=Nc3c(C)n(C)n(-c4ccccc4)c3=O)c3ccccc3c2=O)n1`, the Potency was inconclusive: 35.5 µM [inhibitor, single point] and inconclusive: 15.8 µM [inhibitor, single point].
With `CCNC(=S)/N=C(\N)Nc1nc(C)c2cc(C)ccc2n1` the Potency was inconclusive: 25.1 µM [inhibitor, partial curve, poor fit].
With `O=S(=O)([N-]c1nc2ccccc2nc1-[n+]1ccc(-c2ccncc2)cc1)c1ccccc1` the Potency was active: 3.55 µM.
In the case of `N/C(CS(=O)(=O)c1ccccn1)=N\OC(=O)c1ccc(Cl)cc1`, the Potency is reported as inconclusive: 35.5 µM [inhibitor, single point].
In the case of `CC(=O)C1CCC2C3CC=C4CC(SC(=N)N)CCC4(C)C3CCC12C` (stereo unspecified), the Potency is reported as “inactive”.
In the case of `C/C(=N\NC(=S)Nc1ccccc1)C1Cc2ccccc2C(=O)O1` (stereo unspecified), the Potency is reported as inconclusive: 5.62 µM [inhibitor, single point].
With `NS(=O)(=O)c1ccc2nc(NC(=O)c3ccc(Br)o3)sc2c1` the Potency was inconclusive: 28.2 µM [inhibitor, single point].
For `CCCCCN(C(=O)CCC(=O)OCC(=O)c1ccc(C(C)CC)cc1)c1c(N)n(CCCC)c(=O)[nH]c1=O` (stereo unspecified), the Potency was inconclusive: 6.31 µM [inhibitor, single point].
With `CCOC(=O)c1c(NC(=O)c2ccc(S(=O)(=O)N(C)C3CCCCC3)cc2)sc2c1CCN(C(C)C)C2` the Potency was inconclusive: 35.5 µM [inhibitor, single point].
In the case of `CC1=C(C(=O)c2ccccc2)C(c2ccc(N3CCOCC3)cc2)NC(=O)N1` (stereo unspecified), the Potency is reported as inconclusive: 25.1 µM [inhibitor, single point].
With `COc1ccc(Cl)cc1NC(=S)NCCC(c1ccccc1)c1ccccc1` the Potency was inconclusive: 3.16 µM [inhibitor, single point].
With `CCCn1c(SCC(=O)Nc2cccc(C(=O)OC)c2)nnc1-c1cccnc1` the Potency was inconclusive: 1.12 µM [inhibitor, partial curve, poor fit].
With `Cc1cccc(NC(=O)CSc2ncnc3sc(C)c(C)c23)n1` the Potency was inconclusive: 11.2 µM [inhibitor, partial curve].
In the case of `Cc1cc(C)cc(NC(=O)Cn2cc(C(=O)C3CCCCC3)c3ccccc32)c1`, the Potency is reported as active: 7.08 µM.
For `Cc1ccc2nc(COc3ccccc3NC(=O)c3ccc(F)cc3)cc(=O)n2c1`, the Potency was “inactive”.
In the case of `Cc1cc(C)c(NC(=O)C2CCN(c3nn4c(=O)cc(C)nc4s3)CC2)c(C)c1`, the Potency is reported as “inactive”.
In the case of `CC(C)(O)C#Cc1ccc(C(=O)N2CCN(c3ccc(Cl)cc3)CC2)cc1`, the Potency is reported as inconclusive: 35.5 µM [inhibitor, single point].
In the case of `CCCCNC(=S)Nc1ccccc1Cc1ccccc1`, the Potency is reported as inconclusive: 25.1 µM [inhibitor, single point].
For `COc1ccc(CCNc2ncnc3c2cnn3-c2cc(Cl)ccc2C)cc1`, the Potency was “inactive”.
In the case of `CN1CCc2c(sc3c2C(=O)NC(c2ccc(C(C)(C)C)cc2)N3)C1` (stereo unspecified), the Potency is reported as inconclusive: 22.4 µM [inhibitor, single point].
For `CN1CC=C2C(C#N)=C(N)C(C#N)(C#N)[C@H](c3cccc(Cl)c3)C2C1` (stereo partly specified), the Potency was inconclusive: 12.6 µM [inhibitor, partial curve, poor fit].
In the case of `CCCCCCN1C=CC(=C/C=C(\C#N)C(=O)OCC)C=C1`, the Potency is reported as inconclusive: 3.55 µM [inhibitor, partial curve, poor fit].
In the case of `O=c1[nH]c(/C=C/c2cccc3ccccc23)nc2ccccc12`, the Potency is reported as active: 12.6 µM.
In the case of `COc1ccc(NC(=O)CSc2nc3nc(-c4cccs4)cc(C(F)(F)F)c3c(=O)[nH]2)c(OC)c1`, the Potency is reported as “inactive”.
With `NC(=O)c1cc(Br)cc2c3c([nH]c12)CCCC3` the Potency was “inactive”.
With `C/C(=N\NC(N)=S)C1C2C3CC4C5CC(C42)C1C53` (stereo unspecified) the Potency was inconclusive: 28.2 µM [inhibitor, partial curve, poor fit].
In the case of `Cc1ccc(NC(=O)CN(C)C(=O)Cc2c(Cl)cccc2Cl)cc1`, the Potency is reported as inconclusive: 35.5 µM [inhibitor, single point].
In the case of `O=C1CC(N(CCc2ccccc2)C(=S)Nc2ccccc2)C(=O)N1c1ccc(F)cc1` (stereo unspecified), the Potency is reported as “inactive”.
In the case of `C=CCn1c(=NC(=O)c2cccc(N3C(=O)CCC3=O)c2)sc2cccc(OC)c21`, the Potency is reported as “inactive”.
With `Cc1ccc(-n2c(N)c(C#N)c(-c3ccccc3)c(C#N)c2=O)cc1` the Potency was “inactive”.
With `Cc1noc(C)c1COC(=O)[C@@H](NC(=O)c1ccccc1Cl)C(C)C` the Potency was inconclusive: 0.562 µM [inhibitor, full curve, poor fit].
In the case of `c1ccc(C(c2ccccc2)N2CCN(c3ccc4ccccc4n3)CC2)cc1`, the Potency is reported as “inactive”.
For `COc1ccc(Cl)cc1NC(=O)CN(C)Cc1cccs1`, the Potency was inconclusive: 2.24 µM [inhibitor, partial curve, poor fit].
For `CC(=O)N1CCC(C(=O)NC2CCCc3c2cnn3-c2cc(F)cc(F)c2)CC1` (stereo unspecified), the Potency was inconclusive: 0.562 µM [inhibitor, full curve, poor fit].
With `CCCCN(C)S(=O)(=O)c1ccc(C(=O)Nc2nnc(-c3ccco3)o2)cc1` the Potency was inconclusive: 20 µM [inhibitor, single point].
For `c1ccc(-c2cnc(SCCN3CCOCC3)n2CC2CCCO2)cc1` (stereo unspecified), the Potency was “inactive”.
With `O=c1[nH]c2ccc([N+](=O)[O-])cc2nc1/C=C(\O)c1ccccc1` the Potency was inconclusive: 11.2 µM [inhibitor, partial curve, poor fit].
In the case of `CC(=O)Oc1ccc(-c2csc(Nc3ccc(S(N)(=O)=O)cc3)n2)cc1`, the Potency is reported as “inactive”.
For `Cc1ccccc1-n1c(=O)/c(=C\c2ccco2)s/c1=C(/C#N)C(=O)Nc1ccccc1`, the Potency was inconclusive: 10 µM [inhibitor, partial curve, poor fit].
In the case of `CC1CN(C(=O)C(C)Sc2nnnn2C)CC(C)O1` (stereo unspecified), the Potency is reported as inconclusive: 35.5 µM [inhibitor, single point].
With `CCCCCn1c(=S)[nH]c2ncccc2c1=O` the Potency was “inactive”.
With `CS(=O)(=O)ON=C1CCN(S(=O)(=O)c2ccccc2)CC1` the Potency was inconclusive: 35.5 µM [inhibitor, partial curve, poor fit].
In the case of `COC(=O)C1Sc2[nH]c(=O)sc2C2c3ccccc3OC(=O)C12` (stereo unspecified), the Potency is reported as “inactive”.
For `Cc1ccc(C)c(Cn2c(=O)n(CCCC(=O)NCc3ccco3)c(=O)c3sccc32)c1`, the Potency was “inactive”.
For `CCCCCCN1C[C@H](O)[C@@H](n2cc(-c3ccc(F)cc3)nn2)C[C@@H]1c1ccccc1`, the Potency was inconclusive: 25.1 µM [inhibitor, single point].
With `COCCNc1cc(N2CCN(C3CCCCC3)CC2)c2noc3c2c1C(=O)c1ccccc1-3` the Potency was inconclusive: 3.55 µM [inhibitor, partial curve, poor fit].
In the case of `O=[N+]([O-])c1cccc(/C=C/c2nc(C=Nc3ccccc3)c(O)o2)c1`, the Potency is reported as inconclusive: 20 µM [inhibitor, partial curve, poor fit].
In the case of `Cc1cc(C)cc(N2C(=O)CC(Sc3nnnn3-c3ccccc3)C2=O)c1` (stereo unspecified), the Potency is reported as “inactive”.
For `C=CCN=C1NN=C(c2ccc3c(c2)OCCO3)CS1`, the Potency was inconclusive: 35.5 µM [inhibitor, single point].
With `CCCCCc1ccc(CC(=O)Nn2c(C)nc3ccccc3c2=O)cc1` the Potency was “inactive”.
With `Cc1ccc(C)c(OCCC(=O)OCC(=O)Nc2ccc(Cl)cn2)c1` the Potency was inconclusive: 12.6 µM [inhibitor, single point].
For `CS(=O)(=O)c1nc(-c2ccc(Br)cc2)n[nH]1`, the Potency was inconclusive: 35.5 µM [inhibitor, single point].
For `COc1ccc(C/C(C)=N/NC(=S)Nc2ccc(C(C)C)cc2)cc1`, the Potency was “inactive”.
For `Cc1cc(Cl)ccc1OC(C)C(=O)Nc1ccc([N+](=O)[O-])cn1` (stereo unspecified), the Potency was “inactive”.
In the case of `COc1ccc(NC(=O)/C(C#N)=C/c2ccc(C)o2)cc1`, the Potency is reported as inconclusive: 35.5 µM [inhibitor, single point].
With `O=c1c(C(c2ccc(Br)cc2)c2c(O)nc3n(c2=O)CCS3)c(O)nc2n1CCS2` the Potency was “inactive”.
For `O=C1CN(CC(=O)Nc2cccc(Cl)c2Cl)c2ccccc2N1`, the Potency was inconclusive: 35.5 µM [inhibitor, single point].
In the case of `COC(=O)c1cc(=O)n(Cc2cccs2)c(=Nc2ccc(F)cc2)s1`, the Potency is reported as inconclusive: 35.5 µM [inhibitor, single point].
With `O=C1C(Cl)=C(N2CCN(c3ccccc3[N+](=O)[O-])CC2)C(=O)c2ccccc21` the Potency was inconclusive: 6.31 µM [inhibitor, single point].
With `CN1CCc2c(sc3c2C(=O)NC(c2ccc(-c4cccc(Cl)c4)o2)N3)C1` (stereo unspecified) the Potency was inconclusive: 31.6 µM [inhibitor, single point].
For `COc1cc2c(=O)c(S(=O)(=O)c3ccc(C)cc3)cn(Cc3cccc(C)c3)c2cc1OC`, the Potency was “inactive”.
In the case of `CCN1CCN(c2ccc(S(=O)(=O)N3CCOCC3)cc2NC(=O)/C=C/c2ccc([N+](=O)[O-])cc2)CC1`, the Potency is reported as inconclusive: 31.6 µM [inhibitor, single point].
For `Cc1onc(-c2c(F)cccc2Cl)c1C(=O)N1CCCC1`, the Potency was inconclusive: 3.16 µM [inhibitor, partial curve, poor fit].
With `Cc1ccc(C(=O)CN2C(=O)C(=O)N(Cc3ccccc3)C2=O)cc1` the Potency was inconclusive: 5.62 µM [inhibitor, single point].
With `O=c1[nH]c(SCc2ccccc2Cl)nc2c1cnn2-c1ccccc1` the Potency was inconclusive: 5.01 µM [inhibitor, partial curve, poor fit].
In the case of `CCN=C1S/C(=C\c2ccc(-c3cccc(C(=O)O)c3)o2)C(=O)N1CC`, the Potency is reported as inconclusive: 22.4 µM [inhibitor, single point].
